# Measured values as given in PubChem BioAssay AID504467 (National Center for Advancing Translational Sciences (NCATS), 2011).
# Among all 330,000 compounds or so, about 7,700 (2.3%) were called active. Inconclusive results, whose numbers are uncertain, are shown with a selection of clear calls. The call rests on the fitted dose curve; in most records, active means well fitted inhibition curve with a large enough effect; inconclusive means small, poorly fitted or top-dose-only effect, or effect the other way; inactive means flat fitted curve, though single readings scatter. Potencies beside an inconclusive call are fits to weak or partial responses and may not hold up.
# Assay: qHTS screen for small molecules that inhibit ELG1-dependent DNA repair in human embryonic kidney (HEK293T) cells expressing luciferase-tagged ELG1; further: nearly all actives have a fitted effect of over 55% in size
# Details: HEK293T ELG1-luciferase reporter, luminescence, 16 h, DNA damage induced by 5-fluorouridine; activity change, negative = inhibition: at 46.1 µM (top of the series)
# Outline: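 Step one: seed 2,000 cells per well. Step two: pin-transfer compound or DMSO alongside 5-fluorouridine. Step three: incubate 16 hr, 37 °C, 5% CO2. Step four: add ONE-Glo, wait 30 min, read luminescence.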
# On the % scale 0 is the no-effect control and ±100 the full control effect; potency means the concentration at half of the fitted maximal effect.
SMILES,Potency,"activity change, negative = inhibition"
O=C(O)c1cccc(N/N=C/c2cn(-c3ccccc3)nc2-c2cccs2)c1,"inconclusive: 13 µM [activator, partial curve]",–
CCCN1CCc2c(sc(NC(=O)C3CCN(S(=O)(=O)c4cccs4)CC3)c2C(N)=O)C1,–,inactive: -21.7%
CCC(=O)c1ccc(N2CCN(C(=O)COc3ccccc3F)CC2)c(F)c1,"inconclusive: 20.6 µM [inhibitor, single point]",–
COc1ccc(C2CC(c3c(-c4ccccc4)c4cc(Cl)ccc4[nH]c3=O)=NN2S(C)(=O)=O)cc1 (centres undefined),"inconclusive: 20.6 µM [inhibitor, single point]",–
CCNC(=S)Nc1nc2c(cc1C(=O)OCC)CCCC2,"inconclusive: 29.1 µM [activator, single point]",–
O=C(Nc1ccc2c(c1)OCO2)C1CC(=O)N(c2cccc(Cl)c2)C1 (centres undefined),–,inactive: 2.92%
COc1cc(C(=O)Nc2nc(-c3ccc(F)cc3)cs2)ccc1OCC(=O)N1CCOCC1,"inconclusive: 29.1 µM [inhibitor, single point]",–
CCc1ccc(OCC(=O)Nc2ccc3c(c2)OCCO3)cc1,"inconclusive: 7.3 µM [activator, partial curve]",–
COc1ccccc1N(C)S(=O)(=O)c1ccc(C(=O)OCC(=O)N2CCC2)cc1,–,inactive: -13.8%
COC(=O)c1cc(NC(=O)N2c3ccccc3Sc3ccccc32)cc(C(=O)OC)c1,"inconclusive: 13 µM [inhibitor, partial curve]",–
COc1ccc(C2c3c(oc4ccccc4c3=O)C(=O)N2Cc2ccncc2)cc1 (centres undefined),"inconclusive: 7.31 µM [inhibitor, partial curve, poor fit]",–
Nn1c(SCc2ccc(C(=O)O)cc2)nnc1-c1ccc(Cl)cc1Cl,"inconclusive: 23.1 µM [activator, single point]",–
COc1cc(NC(=O)C2=CC(c3ccco3)=NS(=O)(=O)N2C)cc(OC)c1OC,–,inactive: -1.38%
COc1ccc(C(=O)C(CN2CCOCC2)c2ccccc2)cc1F (centres undefined),"inconclusive: 20.6 µM [inhibitor, single point]",–
O=C1c2ccccc2NC(c2c(Cl)cccc2Cl)N1Cc1ccccc1 (centres undefined),–,inactive: -2.21%
Cc1cccc(OCC(=O)Nc2sc3c(c2C#N)CCC3)c1,"inconclusive: 20.6 µM [activator, partial curve]",–
CCCNc1sc(S(=O)(=O)CCC)nc1S(=O)(=O)c1ccc(C)cc1,–,inactive: 18.1%
COc1ccc(N2CCN(C(=O)C3CCN(S(=O)(=O)c4ccc(F)cc4)CC3)CC2)cc1,"inconclusive: 16.4 µM [inhibitor, single point]",–
COc1cc(-c2nc(C(=O)NC3CCCCC3)cc3c2[nH]c2ccccc23)cc(OC)c1OC,active: 5.8 µM,–
CC(=O)Nc1cccc(NC(=O)c2cccc3cccnc23)c1,"inconclusive: 10.3 µM [activator, partial curve, poor fit]",–
COc1ccccc1/C=C/C=N/NC(=O)c1cc(-c2ccc(C)o2)[nH]n1,"inconclusive: 18.3 µM [inhibitor, single point]",–
O=S(=O)(c1ccc2nc(N3CCN(c4ccc(F)cc4)CC3)ccc2c1)N1CCCCC1,–,inactive: -3.67%
COc1ccc(Cc2c(O)nc[nH]c2=O)cc1,–,inactive: -2.07%

SMILES,Potency,"activity change, negative = inhibition"
Cc1nc2ccccc2c2oc(C(=O)NCC3COc4ccccc4O3)cc12 (centres undefined),active: 14.6 µM,–
CN(c1ccccc1)S(=O)(=O)c1ccc(C(=O)NCc2ccccc2F)cc1,–,inactive: -29.4%
Cc1nnc(SCC(=O)N/N=C/c2cn(-c3ccccc3)nc2-c2ccccc2)n1-c1ccccc1,"inconclusive: 18.4 µM [inhibitor, single point]",–
NC(=O)CSc1nc2sc(-c3ccccc3)cc2c(=O)n1N,"inconclusive: 18.4 µM [activator, partial curve]",–
Oc1cc(-c2ccc(N3CCCCC3)nc2)cc2cccnc12,"inconclusive: 16.4 µM [activator, partial curve]",–
CC(C)CN1CCC(=O)N([C@H](CSc2ccc(Br)cc2)Cc2ccccc2)CC1,–,inactive: -15%
O=C(c1cc(COc2ccc(F)cc2Cl)on1)N1CCC(OCc2cccnc2)CC1,"inconclusive: 23.1 µM [inhibitor, single point]",–
N#CC(c1ccccc1O)N1N=C(c2ccccc2)CC1c1ccccc1 (centres undefined),"inconclusive: 16.4 µM [activator, partial curve]",–
COc1ccc(C(=O)N=c2sc3c(C)ccc(OC)c3n2C)cc1,"inconclusive: 0.326 µM [activator, full curve]",–
COc1ccc(/C=C2\CCCC3C2=NN(C(=O)c2scnc2C)C3c2ccc(OC)cc2)cc1 (centres undefined),active: 18.4 µM,–
CCOC(=O)N1CCC(NS(=O)(=O)c2ccc(NC(C)=O)c(Cl)c2)CC1,active: 7.3 µM,–
CCOC(=O)c1c(C)n(-c2ccc(C)cc2)c2c(CC(C)=O)c(Br)c(OC)c(O)c12,–,inconclusive: 19.8% [activator]
COc1ccc(CCNc2cc(C)nc3c(-c4ccc(Cl)cc4)c(C)nn23)cc1OC,"inconclusive: 16.4 µM [inhibitor, partial curve]",–
O=C1c2cccc3cccc(c23)C(=O)N1c1ccncc1,"inconclusive: 16.4 µM [inhibitor, partial curve]",–
Cc1ccc(C)c(S(=O)(=O)N2CCN(C(=O)c3cc(S(=O)(=O)NCc4ccccc4)ccc3C)CC2)c1,"inconclusive: 29.1 µM [inhibitor, single point]",–
Cc1ccccc1NC(=O)C(C)c1ccc(-c2ccccc2)c(F)c1 (centres undefined),"inconclusive: 29.1 µM [inhibitor, single point]",–
O=C(Nc1ccc(Cl)cc1)Nc1ccc2c(c1)OCO2,"inconclusive: 9.2 µM [activator, partial curve]",–
CCC(C)Nc1nc2ccccc2n2c(C)nnc12 (centres undefined),"inconclusive: 10.3 µM [activator, partial curve]",–
COc1ccccc1/C=C/C=N/n1c(-c2ccccc2)n[nH]c1=S,"inconclusive: 6.51 µM [inhibitor, single point]",–
O=C(COc1ccc(C(=O)c2ccc(F)cc2)cc1)NCc1ccc(F)cc1,"inconclusive: 2.59 µM [inhibitor, full curve]",–
COCCN1CC(CNC(=O)c2cc(COc3ccc(C)c(C)c3)on2)CC1=O (centres undefined),"inconclusive: 29.1 µM [activator, single point]",–
Cc1ccccc1CNC(=O)C1CCN(c2nnc(N3CCCC3=O)s2)CC1,–,inactive: 3.35%
Nc1ccc(S(=O)(=O)NC2(C(F)(F)F)NC(=O)N(c3ccccc3F)C2=O)cc1 (centres undefined),–,inactive: 22.9%

# Retrieved by structure from above, 5 records:
SMILES,Potency,"activity change, negative = inhibition"
O=C(O)c1cccc(N/N=C/c2cn(-c3ccccc3)nc2-c2cccs2)c1,"inconclusive: 13 µM [activator, partial curve]",–
COc1ccccc1/C=C/C=N/n1c(-c2ccccc2)n[nH]c1=S,"inconclusive: 6.51 µM [inhibitor, single point]",–
CCNC(=S)Nc1nc2c(cc1C(=O)OCC)CCCC2,"inconclusive: 29.1 µM [activator, single point]",–
CN(c1ccccc1)S(=O)(=O)c1ccc(C(=O)NCc2ccccc2F)cc1,–,inactive: -29.4%
Cc1ccc(C)c(S(=O)(=O)N2CCN(C(=O)c3cc(S(=O)(=O)NCc4ccccc4)ccc3C)CC2)c1,"inconclusive: 29.1 µM [inhibitor, single point]",–

# More results.

SMILES,Potency,"activity change, negative = inhibition"
Cc1cccc(-n2c(O)c(C=NC3CCS(=O)(=O)C3)c3ccccc3c2=O)c1C (centres undefined),"inconclusive: 10.3 µM [activator, partial curve]",–
O=C(Oc1ccc([N+](=O)[O-])cc1)C1CC(=O)N(c2ccc3c(c2)OCCO3)C1 (centres undefined),"inconclusive: 13 µM [activator, partial curve, poor fit]",–
O=C(CCS(=O)(=O)c1cccc2nonc12)NC1CCCCCC1,"inconclusive: 8.2 µM [activator, partial curve, poor fit]",–
COCC(=O)Nc1ccc(C(C)C)cc1,"inconclusive: 14.6 µM [activator, partial curve]",–
Cc1ccc(NC(=O)C2CCN(C(=O)OC(C)(C)C)CC2)cc1S(=O)(=O)N1CCCCC1,"inconclusive: 20.6 µM [inhibitor, single point]",–
O=[N+]([O-])c1cccc(/C=C/C=N/Nc2nc(N3CCCCC3)nc(N3CCCCC3)n2)c1,–,inactive: -1.88%
CC(=O)NCCNC(=O)[C@H](Cc1ccccc1)NC(=O)c1cccs1,–,inactive: -12.8%
O=C(NNC(=O)c1ccc(Cl)cc1Cl)Nc1ccccc1,–,inactive: 0.238%
Cc1ccccc1CCNC(=O)CCn1ccc2cc(S(=O)(=O)N3CCCC3)ccc21,"inconclusive: 29.1 µM [inhibitor, single point]",–
COC(=O)c1ccc2c(=O)[nH]c(CSc3nc(-c4ccc(F)cc4)cs3)nc2c1,"inconclusive: 29.1 µM [activator, partial curve, poor fit]",–
CC(=O)NC(NC(=S)Nc1ccc(S(N)(=O)=O)cc1)C(Cl)(Cl)Cl (centres undefined),–,inactive: 3.13%
Cc1nnc(Oc2ccccc2F)c2ccccc12,"inconclusive: 20.6 µM [activator, partial curve]",–
O=C1NC[C@H](c2ccccc2)N(CCc2cc(C(F)(F)F)cc(C(F)(F)F)c2)C1=O,"inconclusive: 29.1 µM [inhibitor, partial curve, poor fit]",–
O=C(c1cccs1)c1coc2ccc(O)c(CN3CCOCC3)c12,–,inactive: -26.6%
COc1ccc(Cl)cc1Nc1nc(-c2sc(NC(=O)c3ccco3)nc2C)cs1,"inconclusive: 8.2 µM [inhibitor, partial curve]",–
O=C(NNC(=S)Nc1ccccc1Cl)c1ccccc1Cl,–,inactive: -15.4%
CCc1ccccc1N1C(=O)C2CC=CCC2C1=O (centres undefined),–,inactive: -3.56%
CCCCN(C)Cc1cc(=O)oc2ccc3ccccc3c12,"inconclusive: 0.82 µM [activator, full curve]",–
CC(C)Oc1ccc(OCCSc2nc3ccccc3n2CC(=O)O)cc1,–,inactive: -13.7%
O=C(COc1ccc(/C=N/NS(=O)(=O)c2ccccc2)cc1)N1CCOCC1,"inconclusive: 29.1 µM [inhibitor, single point]",–
O=C(c1cc(-c2ccc3c(c2)OCO3)on1)N1CCOCC1,"inconclusive: 1.58 µM [activator, partial curve, poor fit]",–
CC(C)S(=O)(=O)c1csc(C(=O)Nc2ccc(F)cc2)c1N,"inconclusive: 2.06 µM [activator, full curve]",–
C=CCSc1nc2ccccc2c(=O)n1Cc1ccccc1,"inconclusive: 0.651 µM [activator, full curve, poor fit]",–
